# According to PubChem BioAssay AID540276 (National Center for Advancing Translational Sciences (NCATS), 2011):
# In all, about 300,000 compounds went through this assay and about 5,400 (1.8%) were called active. This list was built around the results that the source calls inconclusive (neither active nor inactive); the mix of calls is not that of the screen. Calls come from the whole dose curve; tested in HEK293 cells. Potencies beside an inconclusive call are fits to weak or partial responses and may not hold up.
# Assay: qHTS for inhibitors of binding or entry into cells for Marburg Virus
# Conditions: Marburg virus pseudotyped entry inhibition, cell reporter; activity change, negative = inhibition: at 37.8 µM (top of the series) unless noted
# % is set by controls: 0 for no effect and ±100 for the full control effect; potency is the fitted concentration of half-maximal effect.
Structure (SMILES),Potency,"activity change, negative = inhibition"
CCOC(=O)C1CN(c2cc3c(cc2F)c(=O)c(C(=O)O)cn3CC)OC1C(=O)OCC (stereo unspecified),inactive,–
Cc1cccc(N2CC(c3nc4ccccc4n3CCC3CCCCC3)CC2=O)c1 (stereo unspecified),inactive,–
COc1ccc(/C=C/C(=O)c2ccc(NC3=NCCCS3)cc2)cc1OC,"inconclusive: 35.5 µM [inhibitor, partial curve, poor fit]",–
Cc1cc(C)cc(NC(=O)Cn2nnc(C(=O)NCc3ccccc3Cl)c2N)c1,inactive,–
O=C(CNC(=O)c1ccccc1Cl)NCC(c1cccs1)N1CCOCC1 (stereo unspecified),inactive,–
CCN(CC)CCNC(=O)c1ccc(Sc2ccc(Cl)cc2)c(NC(C)=O)c1,"inconclusive: 35.5 µM [inhibitor, single point]",–
CC(C)C(NC(=O)C1CCCCC1)C(=O)N1CCN(c2ccc(F)cc2)CC1 (stereo unspecified),inactive,–
COCCCNC(=O)c1ccc(Cn2c(=O)c3ccccc3n(CC(=O)Nc3ccc(C)cc3C)c2=O)cc1,"inconclusive: 2.82 µM [inhibitor, single point]",–
CCOc1ccc(Cl)cc1CNCCc1ccccc1F,"inconclusive: 35.5 µM [inhibitor, single point]",–
O=C(O)c1ccc(CN(Cc2ccccc2)S(=O)(=O)c2ccc(Cl)cc2)cc1,inactive,–
N#C/C(=N\Nc1ccc(Cl)cc1)C(=O)c1ccsc1,"inconclusive: 22.4 µM [inhibitor, single point]",–
COc1ccc(-c2nc3nc(C)cc(N4CCN(c5cccc(C(F)(F)F)c5)CC4)n3n2)cc1,inactive,–
O=C(NCCN1CCNC1=O)C1CCC(=O)N(Cc2ccccc2F)C1 (stereo unspecified),"inconclusive: 14.1 µM [activator, single point]",–
COC(=O)C1=CN(Cc2cccs2)C=C(C(=O)OC)C1c1ccc(OC)cc1OC,"inconclusive: 35.5 µM [inhibitor, single point]",–
COc1ccc(-c2nnc(SCC(=O)c3cccs3)o2)c(OC)c1,"inconclusive: 2.31 µM [activator, partial curve, poor fit]",–
O=C(NNCc1ccccc1)c1ccccc1,"inconclusive: 15.8 µM [inhibitor, single point]",–
S=C(NCc1ccco1)Nc1cc(-c2ccccc2)[nH]n1,inactive,–
COC(=O)c1cccc(S(=O)(=O)N2CCC(NC(=O)NC34CC5CC(CC(C5)C3)C4)CC2)c1,inactive,–
COc1ccc(N/C=C/C(=O)c2sc(-c3ccccc3)nc2C)cc1,"inconclusive: 3.16 µM [inhibitor, single point]",–
CCOC(=O)N1CCc2c(sc3c2c(=O)n(-c2ccc(Cl)cc2)c(=O)n3Cc2cccc(OC)c2)C1,inactive,–
COc1ccc(OC)c(C2=Nn3c(nnc3-c3cc(OC)c(OC)c(OC)c3)SC2)c1,"inconclusive: 23.1 µM [inhibitor, partial curve, poor fit]",–
O=C(COC(=O)c1ccc(Br)o1)NCC1CCCCC1,"inconclusive: 4.47 µM [inhibitor, single point]",–
O=Cc1ccc(-c2ccc([N+](=O)[O-])cc2Cl)o1,inactive,–
O=C(NNC1=NCCCCC1)c1ccccc1,"inconclusive: 1.16 µM [activator, single point]",–

# Part of the list above, with bars between the fields.
Structure (SMILES) | Potency | activity change, negative = inhibition
O=C(O)c1ccc(CN(Cc2ccccc2)S(=O)(=O)c2ccc(Cl)cc2)cc1 | inactive | –
COc1ccc(-c2nnc(SCC(=O)c3cccs3)o2)c(OC)c1 | inconclusive: 2.31 µM [activator, partial curve, poor fit] | –

# Continuation.

Structure (SMILES),Potency,"activity change, negative = inhibition"
CC(C)(C)c1ccc(/C=C/C(=O)Nc2nncs2)cc1,"inconclusive: 3.66 µM [activator, single point]",–
CCc1ccc(Oc2c(C(F)(F)F)oc3c(CN4CCN(CC)CC4)c(O)ccc3c2=O)cc1,"inconclusive: 11.2 µM [inhibitor, partial curve, poor fit]",–
COc1ccc(NC(=O)c2cc(F)cc(F)c2)cc1Cl,inactive,–
CC(=O)NNC(=O)c1csc(-c2csc(C)n2)n1,inactive,–
N#Cc1c2nc3ccccc3nc2n2cc(NC(=O)c3ccc(F)cc3)ccc12,"inconclusive: 0.891 µM [inhibitor, full curve, poor fit]",–
O=C(Nc1cc(F)ccc1F)c1ccc(-n2cncn2)c([N+](=O)[O-])c1,inactive,–
Cc1ccccc1-n1ccnc1SCC(=O)NCc1ccco1,"inconclusive: 1.12 µM [inhibitor, single point]",–
CCN(CC)S(=O)(=O)c1ccc(Nc2nc3ccccc3n3nnnc23)cc1,inactive,–
O=C(Cc1ccccc1)NCC(=O)N1CCN(c2ccccc2F)CC1,–,inconclusive: 30.8% [activator]
N#C/C(=C\c1cc([N+](=O)[O-])c(N2CCOCC2)cc1N1CCOCC1)c1nc2ccccc2[nH]1,"inconclusive: 11.2 µM [inhibitor, partial curve, poor fit]",–
Cc1cc(C)cc(NC(=O)C(=O)NCCCN2CCOCC2)c1,inactive,–
CCOc1ncccc1C(=O)NCCc1ccc(S(N)(=O)=O)cc1,inactive,–
COc1ccc(C(=O)OCC(=O)c2ccc(CNC(C)=O)s2)cc1,"inconclusive: 31.6 µM [activator, single point]",–
COc1ccc(-c2nc(N3CCN(C)CC3)sc2-c2ccc(OC)cc2)cc1,"inconclusive: 15.8 µM [inhibitor, single point]",–
CC1(C)Cc2c(C#N)c(NCC3CCCO3)nc(-c3ccco3)c2CO1 (stereo unspecified),"inconclusive: 22.4 µM [inhibitor, single point]",–
CCOC(=O)C1=C(C)OC(N)=C(C#N)C1c1ccc(C)o1 (stereo unspecified),"inconclusive: 4.11 µM [inhibitor, full curve, poor fit]",–
COc1ccc(/C=C/c2cc(C(=O)O)c3ccccc3n2)cc1,"inconclusive: 1.26 µM [inhibitor, full curve, poor fit]",–
CCOC(=O)C(c1ccccc1)C(Nc1cc(C(F)(F)F)cc(C(F)(F)F)c1)c1ccccn1 (stereo unspecified),"inconclusive: 7.08 µM [inhibitor, partial curve, poor fit]",–
Cc1cc(NC(=O)c2ccc(C)o2)no1,inactive,–
COc1ccc(NC(=O)c2oc3ccccc3c2NC(=O)C(C)(C)C)cc1,inactive,–
Cc1c(C(=O)N2CCCCC2)c(S(=O)(=O)N2CCc3ccccc32)c(C)n1C,"inconclusive: 31.6 µM [activator, single point]",–
CN1C(=O)/C(=C/C=C2\SCCN2C)SC1=S,"inconclusive: 0.0259 µM [activator, partial curve, poor fit]",–
NC(=O)C(c1ccccc1)c1ccc(C(=O)c2ccccc2)cc1 (stereo unspecified),"inconclusive: 11.2 µM [inhibitor, partial curve, poor fit]",–

# Some of the entries so far, bar-delimited:
Structure (SMILES) | Potency | activity change, negative = inhibition
O=C(Nc1cc(F)ccc1F)c1ccc(-n2cncn2)c([N+](=O)[O-])c1 | inactive | –
Cc1ccccc1-n1ccnc1SCC(=O)NCc1ccco1 | inconclusive: 1.12 µM [inhibitor, single point] | –

# (next part)

Structure (SMILES),Potency,"activity change, negative = inhibition"
CCOc1ccccc1N1CCN(C(=O)CC(C)(C)C)CC1,"inconclusive: 5.62 µM [activator, single point]",–
Cc1cc(C(=O)Cn2nnc(-c3ccc(Cl)cc3)n2)c(C)n1CC1CCCO1 (stereo unspecified),inactive,–
Cc1ccc(OCc2ccoc2C(=O)O)cc1C,"inconclusive: 35.5 µM [activator, single point]",–
O=C(Nc1ccc(-c2cn3c(n2)SCC3)cc1)c1ccco1,"inconclusive: 3.98 µM [activator, single point]",–
O=C(Nc1ccccc1)N(Cc1ccccc1)CC(O)C(F)(F)F (stereo unspecified),"inconclusive: 35.5 µM [inhibitor, single point]",–
CC/C(=N\Nc1ccnc2cc(Cl)ccc12)c1ccc(O)cc1,"inconclusive: 15.8 µM [inhibitor, single point]",–
COC(=O)c1ccc(CNC(=O)CSc2nc3ccccc3[nH]2)cc1,inactive,–
Cc1ccc(OCCNS(=O)(=O)c2ccc(N3CCCC3=O)cc2)cc1C,"inconclusive: 18.3 µM [inhibitor, partial curve, poor fit]",–
CS(=O)(=O)N(Cc1ccc(Cl)cc1)c1ccc(C(=O)N/N=C/c2cc3ccccc3nc2Cl)cc1,"inconclusive: 16.4 µM [activator, partial curve, poor fit]",–
Cc1nc(Cc2nnc(SC(C)C(=O)Nc3cccc(C#N)c3)o2)cs1 (stereo unspecified),"inconclusive: 3.16 µM [inhibitor, single point]",–
CC(C)c1nnc(NC(=O)COc2ccc3ccccc3c2)s1,inactive,–
O=C(Nc1ccc2c(c1)OCCO2)c1cccc(S(=O)(=O)N2CCCCC2)c1,inactive,–
CCOC(=O)N1CCC2(CC1)C(C#N)=C(N)Oc1c2sc2nc(C)cc(C)c12,"inconclusive: 5.8 µM [inhibitor, partial curve, poor fit]",–
Cc1ccc(F)cc1NC(=O)CSc1nnc(CNC(=O)c2ccco2)n1C,inactive,–
Cc1ccc2nc(Nc3ncc4c(n3)CC(C)(C)CC4=O)nc(C)c2c1,"inconclusive: 2.82 µM [inhibitor, single point]",–
CC12C=C(C=Cc3ccc(Br)cc3)C(C)(C1)C(c1ccc(Br)cc1)CC2=O (stereo unspecified),inactive,–
Cc1ccc(C(=O)Nc2ccccc2N2CCCCC2)cc1S(=O)(=O)N1CCOCC1,"inconclusive: 15.8 µM [inhibitor, partial curve, poor fit]",–
O=C(NC(Cc1c[nH]c2ccccc12)C(=O)N/N=C/c1cccnc1)c1cccs1 (stereo unspecified),"inconclusive: 4.47 µM [inhibitor, full curve, poor fit]",–
CCCCCC(=O)Nc1cc(S(=O)(=O)O)cc2cc(S(=O)(=O)O)cc(O)c12,"inconclusive: 3.55 µM [inhibitor, full curve]",–
CCCN(CCC)S(=O)(=O)c1ccc(NC(=O)COc2ccccc2)cc1,"inconclusive: 0.231 µM [inhibitor, single point]",–
CC/C(=N\n1nnnc1Nc1ccccc1)c1ccccc1,inactive,–
Cc1cccc(-n2c(-c3csc4ccccc34)n[nH]c2=S)c1,inactive,–
COc1ccc(COc2cc(-c3cccc(OC)c3)nc3ccc(NC(=O)c4ccc(C)cc4)cc23)cc1,"inconclusive: 29.1 µM [inhibitor, single point]",–
